These are yes or no findings as the source states them, for the method shown. In cells and extracts the contact can be indirect. Some entries that bind do so weakly or less than the wild type. For part of these data: Where a sequence is shown, tags or fusion partners need not be part of it. Each block holds one molecule with its values, some of them ahead of it.
What was measured:
[1] = target: T1, DsRedMonomer-SBDS (full-length SBDS in pDsRedMonomer) (UniProt Q9Y3A5); assay: FRET or BRET; living HCCLM3 cells co-transfected with AcGFP1-FCN3 and DsRedMonomer-SBDS; control pAcGFP1 and pDsRedMonomer; confocal microscopy, donor before and after (FRET-Efficiency= (Donor post-Donor pre)/Donor post)
T1 sequence: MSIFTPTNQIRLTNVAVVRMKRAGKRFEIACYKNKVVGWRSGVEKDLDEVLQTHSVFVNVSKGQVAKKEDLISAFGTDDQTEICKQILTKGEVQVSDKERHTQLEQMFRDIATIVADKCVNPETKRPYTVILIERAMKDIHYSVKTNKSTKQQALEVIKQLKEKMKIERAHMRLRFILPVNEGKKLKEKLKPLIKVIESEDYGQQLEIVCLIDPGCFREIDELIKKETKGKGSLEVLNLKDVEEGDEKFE

Chains of the proteins cited; added tags and fusions are not shown. Residues count along the entry.
UniProt O75636, residues 24-299: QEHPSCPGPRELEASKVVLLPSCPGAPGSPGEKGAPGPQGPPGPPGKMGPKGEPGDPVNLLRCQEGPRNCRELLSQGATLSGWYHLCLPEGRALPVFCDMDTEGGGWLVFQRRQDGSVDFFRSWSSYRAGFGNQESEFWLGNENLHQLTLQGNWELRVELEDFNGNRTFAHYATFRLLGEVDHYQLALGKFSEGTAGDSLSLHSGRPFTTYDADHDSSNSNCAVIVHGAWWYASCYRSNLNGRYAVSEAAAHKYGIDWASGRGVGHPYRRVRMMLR

[2] = target: T2, SBDS (ribosome maturation factor), endogenous (human (endogenous in HCCLM3 and SK-Hep1)) (UniProt Q9Y3A5); assay: co-IP; endogenous co-IP; HCCLM3 and SK-Hep1 cells transfected with His-FCN3; IP with SBDS antibody or IgG; immunoblot
T2 sequence: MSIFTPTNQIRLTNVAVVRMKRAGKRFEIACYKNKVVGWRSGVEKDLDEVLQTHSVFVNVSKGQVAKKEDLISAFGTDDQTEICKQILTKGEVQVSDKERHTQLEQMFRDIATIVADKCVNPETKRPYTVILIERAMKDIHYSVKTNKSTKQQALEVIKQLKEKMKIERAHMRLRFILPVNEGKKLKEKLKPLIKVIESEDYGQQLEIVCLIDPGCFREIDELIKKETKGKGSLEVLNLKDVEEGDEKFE

[3] = target: Full-length FCN3 (Ficolin-3) with a C-terminal 6x His tag (human) (UniProt O75636); assay: co-IP; exogenous co-IP; HEK-293T co-transfected with His-FCN3 and cMyc-SBDS; IP buffer 20mM Tris-HCl pH 7.4, 1mM EDTA, 150mM NaCl, 1% NP-40; His-tag and Myc-tag antibodies, magnetic beads, overnight at 4 °C; immunoblot

binding [1]: binds
Molecule: AcGFP1-FCN3 (full-length FCN3 in pAcGFP1) (from UniProt O75636 24-299)

binding [2]: binds
Molecule: Full-length FCN3 (Ficolin-3) with a C-terminal 6x His tag (from UniProt O75636 24-299)

binding [3]: binds
B1: SBDS (ribosome maturation factor) with a C-terminal Myc tag (protein, UniProt Q9Y3A5 1-250)
chain: MSIFTPTNQIRLTNVAVVRMKRAGKRFEIACYKNKVVGWRSGVEKDLDEVLQTHSVFVNVSKGQVAKKEDLISAFGTDDQTEICKQILTKGEVQVSDKERHTQLEQMFRDIATIVADKCVNPETKRPYTVILIERAMKDIHYSVKTNKSTKQQALEVIKQLKEKMKIERAHMRLRFILPVNEGKKLKEKLKPLIKVIESEDYGQQLEIVCLIDPGCFREIDELIKKETKGKGSLEVLNLKDVEEGDEKFE

From paper PMC9830510
